Results on 3 substances are retold here after paper PMC10897374 (Scientific Reports, 2024).

Plain letter strings leave the end groups untold. Strings that start with PEPTIDE1 are HELM notation: dots part the residues, brackets hold end groups and non-standard residues.

This data set is described as follows: general procedure: Fmoc solid-phase peptide synthesis; Fmoc-aa-hydroxymethylated resin, 0.6 to 1.00 mmol g^-1; DIC/HOBt. The settings on record: whole synthesis, 220 nm.

In the case of CDRVYIHPFC, the “final HPLC purity” value (one disulfide bridge, sequence written open) worked out at 98%. Regarding PEPTIDE1{D.R.V.Y.I.H.P.F}$$$$V2.0, the “final HPLC purity” value was 98%. As to PEPTIDE1{V.I.P.F}$$$$V2.0, the “final HPLC purity” value is given as 99%.
